The assay concerns the target FLAG-tagged SIRT7 H187Y (enzymatic inactive SIRT7) (UniProt Q9NRC8). Description: co-IP; Huh7 cells transfected with FLAG-tagged SIRT7, FLAG-tagged SIRT7 HY or FLAG-tagged NRF2; endogenous partner detected by Western blot. (In general: A western blot detects proteins with antibodies after separation by electrophoresis.)

By UniProt entry, the sequences of proteins in these tests, tags left out. Where a name states a change or a piece, a line headed by the entry shows the natural chain unless it says otherwise.
UniProt Q9NRC8: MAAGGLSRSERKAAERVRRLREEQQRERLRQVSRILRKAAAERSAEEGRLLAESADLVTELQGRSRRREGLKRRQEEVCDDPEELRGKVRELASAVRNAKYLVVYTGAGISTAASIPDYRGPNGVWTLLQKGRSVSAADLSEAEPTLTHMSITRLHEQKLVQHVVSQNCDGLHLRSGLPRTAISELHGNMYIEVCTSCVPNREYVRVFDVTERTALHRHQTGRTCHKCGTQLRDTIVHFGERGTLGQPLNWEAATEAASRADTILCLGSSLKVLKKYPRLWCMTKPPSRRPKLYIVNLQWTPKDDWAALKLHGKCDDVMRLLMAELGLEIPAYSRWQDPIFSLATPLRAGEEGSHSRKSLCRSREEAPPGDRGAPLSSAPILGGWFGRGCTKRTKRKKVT

No constants are given. Whether binding was seen depends on the method and setting. In cells and extracts the contact can be indirect. A result given as binding can be weak or reduced; the word gives no strength.

B1: NRF2, nuclear factor-E2-related factor 2 (endogenous, Huh7) (protein, UniProt Q16236 1-605)
chain: MMDLELPPPGLPSQQDMDLIDILWRQDIDLGVSREVFDFSQRRKEYELEKQKKLEKERQEQLQKEQEKAFFAQLQLDEETGEFLPIQPAQHIQSETSGSANYSQVAHIPKSDALYFDDCMQLLAQTFPFVDDNEVSSATFQSLVPDIPGHIESPVFIATNQAQSPETSVAQVAPVDLDGMQQDIEQVWEELLSIPELQCLNIENDKLVETTMVPSPEAKLTEVDNYHFYSSIPSMEKEVGNCSPHFLNAFEDSFSSILSTEDPNQLTVNSLNSDATVNTDFGDEFYSAFIAEPSISNSMPSPATLSHSLSELLNGPIDVSDLSLCKAFNQNHPESTAEFNDSDSGISLNTSPSVASPEHSVESSSYGDTLLGLSDSEVEELDSAPGSVKQNGPKTPVHSSGDMVQPLSPSQGQSTHVHDAQCENTPEKELPVSPGHRKTPFTKDKHSSRLEAHLTRDELRAKALHIPFPVEKIINLPVVDFNEMMSKEQFNEAQLALIRDIRRRGKNKVAAQNCRKRKLENIVELEQDLDHLKDEKEKLLKEKGENDKSLHLLKKQLSTLYLEVFSMLRDEDGKPYSPSEYSLQQTRDGNVFLVPKSKKPDVKKN
In the case of B1, the binding entry is “binds”.

The values are drawn from paper PMC11961749.
